By UniProt entry, the sequences of proteins in these tests, tags left out.
UniProt Q9C0B7: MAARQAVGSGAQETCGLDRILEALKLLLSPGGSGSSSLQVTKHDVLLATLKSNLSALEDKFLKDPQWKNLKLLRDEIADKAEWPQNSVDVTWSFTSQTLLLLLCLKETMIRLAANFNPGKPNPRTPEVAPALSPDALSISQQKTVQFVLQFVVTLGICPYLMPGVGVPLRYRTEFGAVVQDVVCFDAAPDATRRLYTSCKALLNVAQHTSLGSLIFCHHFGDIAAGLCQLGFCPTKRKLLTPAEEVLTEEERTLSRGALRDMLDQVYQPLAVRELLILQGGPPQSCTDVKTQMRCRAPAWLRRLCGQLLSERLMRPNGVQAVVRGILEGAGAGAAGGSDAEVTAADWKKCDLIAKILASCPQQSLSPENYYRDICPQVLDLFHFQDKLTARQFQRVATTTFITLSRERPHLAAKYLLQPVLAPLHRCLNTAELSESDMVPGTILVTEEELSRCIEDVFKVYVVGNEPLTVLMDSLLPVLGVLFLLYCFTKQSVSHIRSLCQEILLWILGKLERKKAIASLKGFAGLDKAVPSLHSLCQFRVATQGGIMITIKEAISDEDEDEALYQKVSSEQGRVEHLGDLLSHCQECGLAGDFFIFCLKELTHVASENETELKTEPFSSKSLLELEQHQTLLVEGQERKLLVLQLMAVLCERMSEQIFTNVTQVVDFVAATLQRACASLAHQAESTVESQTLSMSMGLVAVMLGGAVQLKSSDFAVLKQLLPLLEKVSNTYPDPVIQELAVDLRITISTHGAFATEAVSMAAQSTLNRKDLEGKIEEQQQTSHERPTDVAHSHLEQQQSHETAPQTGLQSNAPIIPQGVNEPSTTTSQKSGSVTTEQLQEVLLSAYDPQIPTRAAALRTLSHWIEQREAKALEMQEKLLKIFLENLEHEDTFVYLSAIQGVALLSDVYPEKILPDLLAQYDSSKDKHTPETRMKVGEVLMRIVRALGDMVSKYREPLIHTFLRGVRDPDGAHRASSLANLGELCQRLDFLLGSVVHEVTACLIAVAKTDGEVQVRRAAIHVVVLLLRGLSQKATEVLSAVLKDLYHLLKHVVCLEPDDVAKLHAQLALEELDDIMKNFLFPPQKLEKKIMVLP
UniProt P57678: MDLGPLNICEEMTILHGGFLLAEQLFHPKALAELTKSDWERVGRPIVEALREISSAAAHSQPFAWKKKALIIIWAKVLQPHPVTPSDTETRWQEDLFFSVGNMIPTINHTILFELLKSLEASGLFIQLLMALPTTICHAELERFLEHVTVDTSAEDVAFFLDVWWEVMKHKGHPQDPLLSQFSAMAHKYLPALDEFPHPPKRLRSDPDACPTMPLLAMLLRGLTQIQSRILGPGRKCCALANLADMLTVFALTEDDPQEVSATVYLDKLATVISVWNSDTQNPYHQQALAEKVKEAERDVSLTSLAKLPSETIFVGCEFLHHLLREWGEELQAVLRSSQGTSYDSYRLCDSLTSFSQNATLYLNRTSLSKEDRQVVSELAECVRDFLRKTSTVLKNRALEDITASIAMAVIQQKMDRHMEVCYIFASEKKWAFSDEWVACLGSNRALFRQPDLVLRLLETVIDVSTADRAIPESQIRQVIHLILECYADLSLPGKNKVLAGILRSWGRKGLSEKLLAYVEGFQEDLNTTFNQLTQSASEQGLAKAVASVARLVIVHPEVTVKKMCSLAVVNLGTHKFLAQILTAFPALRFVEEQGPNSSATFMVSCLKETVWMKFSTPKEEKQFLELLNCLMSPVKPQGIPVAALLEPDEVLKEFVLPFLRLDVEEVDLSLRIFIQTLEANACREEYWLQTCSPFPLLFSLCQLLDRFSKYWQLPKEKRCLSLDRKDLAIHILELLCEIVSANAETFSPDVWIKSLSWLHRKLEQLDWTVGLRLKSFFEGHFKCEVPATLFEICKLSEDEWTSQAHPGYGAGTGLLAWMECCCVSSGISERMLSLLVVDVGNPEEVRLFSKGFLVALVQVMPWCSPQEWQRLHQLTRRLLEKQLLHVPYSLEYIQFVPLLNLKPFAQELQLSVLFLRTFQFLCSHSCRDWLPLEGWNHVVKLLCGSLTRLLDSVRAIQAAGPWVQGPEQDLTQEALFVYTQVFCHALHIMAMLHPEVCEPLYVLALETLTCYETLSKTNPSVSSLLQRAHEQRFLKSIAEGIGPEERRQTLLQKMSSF

In publication PMC10943085:

Target: endogenous TANGO6 (human (endogenous in U251)) (UniProt Q9C0B7)
Experiment: affinity purification with mass spectrometry; endogenous TANGO6 pulled down from U251 cells with TANGO6 cross-linked beads; on-bead trypsin; Orbitrap Fusion; n = 1

| binding | Molecule |
| --- | --- |
| binds | GEMIN4 (from UniProt P57678 1-1058) |
| binds | OAT (protein, UniProt P04181 26-439) TSVATKKTVQGPPTSDDIFEREYKYGAHNYHPLPVALERGKGIYLWDVEGRKYFDFLSSYSAVNQGHCHPKIVNALKSQVDKLTLTSRAFYNNVLGEYEEYITKLFNYHKVLPMNTGVEAGETACKLARKWGYTVKGIQKYKAKIVFAAGNFWGRTLSAISSSTDPTSYDGFGPFMPGFDIIPYNDLPALERALQDPNVAAFMVEPIQGEAGVVVPDPGYLMGVRELCTRHQVLFIADEIQTGLARTGRWLAVDYENVRPDIVLLGKALSGGLYPVSAVLCDDDIMLTIKPGEHGSTYGGNPLGCRVAIAALEVLEEENLAENADKLGIILRNELMKLPSDVVTAVRGKGLLNAIVIKETKDWDAWKVCLRLRDNGLLAKPTHGDIIRFAPPLVIKEDELRESIEIINKTILSF |

These are yes or no findings as the source states them, for the method shown. Binding seen in cells or lysates may run through a third protein. Here binding means that the protein was enriched with, or labelled near, the bait; the list need not be complete.
